{
  "source": "patent US20260035409A1",
  "about": "“BRINP2-DERIVED PEPTIDE COMPOSITIONS FOR TREATING OBESITY AND WEIGHT MANAGEMENT” (The Board of Trustees of the Leland Stanford Junior …, priority 2022, published 2026)",
  "key": {"[1]": {"assay": "chronic 14-day daily I.P. treatment of diet-induced obese mice", "format": "in vivo", "conditions": "DIO mice; for accumulated food intake compared with vehicle / average weight difference compared with vehicle / desensitization over the course of the experiment: 14 days daily I.P.; for accumulated food intake compared with vehicle / average weight difference compared with vehicle / desensitization over the course of the experiment / skeletal muscle mass: BRP 5 mg/kg, liraglutide 100 μg/kg; for skeletal muscle mass: 14 days"}, "[2]": {"assay": "metabolic cages (Columbus comprehensive lab animal monitoring system) after single injection", "format": "in vivo, mice", "conditions": "single I.P. injection 5 mg/kg", "method": "To study the metabolic effects in more detail, we next used metabolic cages performed with a Columbus comprehensive lab animal monitoring system. C57BL6/J mice were acclimated to the cages and randomized into two groups, followed by an I.P. injection with either vehicle (saline) or 5 mg/kg BRP (N=4/group).\nFood intake, energy expenditure and body composition measurements. Measurements of accumulated food intake and VO2 were performed using a Comprehensive Lab Animal Monitoring System at room temperature (20-22° C.) (Oxymax, Columbus Instruments) as previously described. Singly housed mice were acclimated in metabolic cages for at least 24 h before the start of experiment to minimize stress."}, "[3]": {"assay": "fasting blood glucose in lean C57BL/6 mice after I.P. injection (no food)", "format": "in vivo", "conditions": "fasted, peptides 5 mg/kg or GLP-1 2 mg/kg I.P.", "method": "(§1) We next performed in vivo studies to determine whether any of these peptides affected food intake or blood glucose levels—two biological consequences of cfos activation. For acute food intake studies, lean, 8-week-old C57BL/6 mice (N=3/group) were fasted for 16 hours prior to administration of vehicle (saline), GLP-1 at 2 mg/kg, or FGF3_4, EDIL3_4, BRNP2_5, SCG1_9, FSTL4_3, and FGF5_5 peptides at 5 mg/kg. The food intake was then monitored over 6 hours.\n(§2) For acute experiments, after overnight fasting for 16 hours, 8-week-old C57BL/6 mice were weighed and I.P. injected with either saline, GLP-1 at 2 mg/kg or peptides at 5 mg/kg (N=3 mice per group). Fasted blood glucose and food intake was then monitored for 6 hours."}, "[4]": {"assay": "acute food intake in fasted lean C57BL/6 mice after I.P. injection", "format": "in vivo", "conditions": "5 mg/kg I.P.", "method": "as §1\nMouse studies. Animal experiments were performed per procedures approved by the Institutional Animal Care and Use Committee of the Stanford Animal Care and Use Committee (APLAC) protocol number #32982. C57BL/6J male mice were purchased from the Jackson Laboratory (#000664) and were used after 1 week of acclimatization after import into the facility. Unless otherwise stated, all mice were in good health and housed in a temperature-controlled (20-22° C.) room on a 12-hour light/dark cycle with ad lib access to food and water.\nas §2"}, "[5]": {"tested_on": "cfos expression in NS-1 cells", "assay": "cfos expression after 1 h peptide treatment, NS-1 cells (qRT-PCR)", "format": "cell-based, rat", "conditions": "peptide 100 μg/ml, listed as BRNP2_5", "text": "(§3) A feature of many known biologically active peptide hormones is the presence of an amidated C-terminus, which can be important for peptide bioactivity, as for gastrin-releasing peptide neuromedin-B, or for increased peptide stability, as for GLP-1. Therefore, the peptide library was constructed with an amide (NH2) group at the C-terminus as the only modification for comparative studies between peptides (FIG. 2a). In total, we generated a library of 100 peptides for functional biological screening. The peptide solubility was deduced according to its overall charge and reconstituted accordingly to optimal solubility. For all peptides, quality control by mass spectrometry was performed which validated the purity of the synthesized peptides for the primary screen according to their theoretical molecular weight (FIG. 8). Next, we functionally explored the potency of 100 of the peptides in activating cfos expression, a marker of cellular activity, after 1 hour of peptide treatment across two cell lines, Neuroscreen-1, NS-1 (rat neuronal origin) and INS1 cells (rat pancreatic origin) (FIG. 2b). […]\n(§4) RNA expression analysis. […] Relative mRNA expression was determined by normalization with Ribosomalprotein S18 (Rsp18) levels using the ΔΔCt method. […]"}, "[6]": {"assay": "acute food intake in diet-induced obese (DIO) mice after I.P. injection", "format": "in vivo", "conditions": "10 mg/kg I.P., up to 6 h; versus vehicle and GLP-1 2 mg/kg"}, "[7]": {"tested_on": "cfos expression in INS1 cells", "assay": "cfos expression after 1 h peptide treatment, INS1 cells (qRT-PCR)", "format": "cell-based, rat", "conditions": "peptide 100 μg/ml, listed as BRNP2_5", "text": "as §3, §4"}},
  "note": "Where “and” joins values, the source holds several entries; their conditions need not be identical. Equal entries are not always repeated. Entries after “also recorded” stand apart in the source; their conditions may differ. At least one peptide structure holds a part that was inferred or is arguable (an end, a ring closure or a residue). For some assays here: At least one compound was matched to its structure with a doubt left. Some entries share one result that the patent states for a list of compounds. Ends that are not written are not given here.",
  "data": [
    {"molecule": "CCCCCCCCCCCCCCCC(=O)N[C@@H](CCC(=O)NCCCC[C@H](NC(=O)[C@H](C)NC(=O)[C@H](C)NC(=O)[C@H](CCC(N)=O)NC(=O)CNC(=O)[C@H](CCC(=O)O)NC(=O)[C@H](CC(C)C)NC(=O)[C@H](Cc1ccc(O)cc1)NC(=O)[C@H](CO)NC(=O)[C@H](CO)NC(=O)[C@@H](NC(=O)[C@H](CC(=O)O)NC(=O)[C@H](CO)NC(=O)[C@@H](NC(=O)[C@H](Cc1ccccc1)NC(=O)[C@@H](NC(=O)CNC(=O)[C@H](CCC(=O)O)NC(=O)[C@H](C)NC(=O)[C@@H](N)Cc1cnc[nH]1)[C@@H](C)O)[C@@H](C)O)C(C)C)C(=O)N[C@@H](CCC(=O)O)C(=O)N[C@@H](Cc1ccccc1)C(=O)N[C@H](C(=O)N[C@@H](C)C(=O)N[C@@H](Cc1c[nH]c2ccccc12)C(=O)N[C@@H](CC(C)C)C(=O)N[C@H](C(=O)N[C@@H](CCCNC(=N)N)C(=O)NCC(=O)N[C@@H](CCCNC(=N)N)C(=O)NCC(=O)O)C(C)C)[C@@H](C)CC)C(=O)O", "note": "[liraglutide, reference compound]", "values": [
      {"measurement": "accumulated food intake compared with vehicle", "setting": "[1]", "result": "significantly lower accumulated food intake"},
      {"measurement": "average weight difference compared with vehicle", "setting": "[1]", "result": 4, "unit": "grams"},
      {"measurement": "desensitization over the course of the experiment", "setting": "[1]", "result": "no desensitization"},
      {"measurement": "skeletal muscle mass", "setting": "[1]", "result": "no difference"}
    ]},
    {"molecule": "THRILRRLFNLC-NH2 [BRP, THRILRRLFNLC]", "values": [
      {"measurement": "accumulated food intake compared with vehicle", "setting": "[1]", "result": "significantly lower accumulated food intake"},
      {"measurement": "average weight difference compared with vehicle", "setting": "[1]", "result": 4, "unit": "grams"},
      {"measurement": "desensitization over the course of the experiment", "setting": "[1]", "result": "no desensitization"},
      {"measurement": "skeletal muscle mass", "setting": "[1]", "result": "no difference"},
      {"measurement": "brown adipose tissue mass", "setting": "[1]; after 14 days BRP 5 mg/kg", "result": "significantly lower"},
      {"measurement": "fasting glucose", "setting": "[1]; after 14 days BRP 5 mg/kg", "result": "lower fasting glucose"},
      {"measurement": "fasting insulin levels", "setting": "[1]; after 14 days BRP 5 mg/kg", "result": "lower"},
      {"measurement": "glucose tolerance (GTT)", "setting": "[1]; after 14 days BRP 5 mg/kg", "result": "improved glucose tolerance"},
      {"measurement": "histological analyses of adipose and liver tissues", "setting": "[1]; after 14 days BRP 5 mg/kg", "result": "reduced adipocyte size and ectopic lipid accumulation in the liver"},
      {"measurement": "insulin tolerance (ITT)", "setting": "[1]; after 14 days BRP 5 mg/kg", "result": "improved"},
      {"measurement": "liver mass", "setting": "[1]; after 14 days BRP 5 mg/kg", "result": "significantly lower"},
      {"measurement": "subcutaneous (inguinal) white adipose tissue mass", "setting": "[1]; after 14 days BRP 5 mg/kg", "result": "significantly lower"},
      {"measurement": "food intake (metabolic cages)", "setting": "[2]", "result": "dramatically reduces food intake"},
      {"measurement": "meal frequency", "setting": "[2]", "result": "without affecting meal frequency"},
      {"measurement": "meal size", "setting": "[2]", "result": "lowers meal size"},
      {"measurement": "oxygen consumption (VO2)", "setting": "[2]", "result": "does not alter oxygen consumption (VO2)"},
      {"measurement": "respiratory exchange ratio", "setting": "[2]", "result": "acutely lowers respiratory exchange ratio"},
      {"measurement": "blood glucose", "setting": "[3]", "result": "without acutely lowering blood glucose"},
      {"measurement": "acute food intake", "setting": "[4]; lean mice fasted 16 h, monitored 6 h, GLP-1 2 mg/kg as comparator, listed as BRNP2_5", "result": "potently controls acute food intake; also recorded: comparable to GLP-1"},
      {"measurement": "duration of food intake suppression", "setting": "[4]; lean mice", "result": "up to 3 hours"},
      {"measurement": "start of food intake suppression", "setting": "[4]; lean mice", "result": 30, "unit": "min"},
      {"measurement": "time of largest difference in food intake after injection", "setting": "[4]; lean mice", "result": 1.5, "unit": "h"},
      {"measurement": "cfos expression compared with vehicle", "setting": "[5]", "result": "> 5 fold and > 10 fold"},
      {"measurement": "food intake in DIO mice", "setting": "[6]", "result": "even stronger suppression of food intake relative vehicle and GLP-1 treated mice"},
      {"measurement": "cfos expression compared with vehicle", "setting": "[7]", "result": "> 5 fold and > 10 fold"}
    ]}
  ]
}
